Where “and” joins values, the source holds several entries; their conditions need not be identical. Equal values may be shown once. The whole screen tested about 580,000 compounds, of which about 6,100 (1.1%) were called active. This list was built around the results that the source calls inconclusive (neither active nor inactive); the mix of calls is not that of the screen. Calls come from the whole dose curve; as a rule, active = well fitted inhibition curve with a large enough effect; inconclusive = small, poorly fitted or top-dose-only effect, or another doubt; inactive = no such curve, though single readings can be large or run the other way. Potencies beside an inconclusive call are fits to weak or partial responses and may not hold up.
Molecular target: Polyunsaturated fatty acid lipoxygenase ALOX12 (Homo sapiens) (UniProt P18054)
Experiment: Primary qHTS assay for inhibitors of human arachidonate 12S-lipoxygenase (ALOX12): Round 2
Conditions: purified 12hLO, xylenol orange hydroperoxide absorbance; activity change, negative = inhibition: at 108 µM (top of the series) unless noted
Outline: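 Purified human 12hLO at 150 nM in 25 mM Hepes, 0.01% Triton X-100, pH 7.0, preincubated 15 min at room temperature with compound. Reaction started with 40 uM arachidonic acid, 30 min at room temperature. Hydroperoxide measured by Fe-xylenol orange, 573/405 nm absorbance ratio.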
% is set by controls: 0 for no effect and ±100 for the full control effect; potency is the fitted concentration of half-maximal effect.

Sequences of proteins named here, by UniProt entry; tags and fusion partners are left off. A change or cut given only in a name is not applied to a line headed by its entry.
UniProt P18054: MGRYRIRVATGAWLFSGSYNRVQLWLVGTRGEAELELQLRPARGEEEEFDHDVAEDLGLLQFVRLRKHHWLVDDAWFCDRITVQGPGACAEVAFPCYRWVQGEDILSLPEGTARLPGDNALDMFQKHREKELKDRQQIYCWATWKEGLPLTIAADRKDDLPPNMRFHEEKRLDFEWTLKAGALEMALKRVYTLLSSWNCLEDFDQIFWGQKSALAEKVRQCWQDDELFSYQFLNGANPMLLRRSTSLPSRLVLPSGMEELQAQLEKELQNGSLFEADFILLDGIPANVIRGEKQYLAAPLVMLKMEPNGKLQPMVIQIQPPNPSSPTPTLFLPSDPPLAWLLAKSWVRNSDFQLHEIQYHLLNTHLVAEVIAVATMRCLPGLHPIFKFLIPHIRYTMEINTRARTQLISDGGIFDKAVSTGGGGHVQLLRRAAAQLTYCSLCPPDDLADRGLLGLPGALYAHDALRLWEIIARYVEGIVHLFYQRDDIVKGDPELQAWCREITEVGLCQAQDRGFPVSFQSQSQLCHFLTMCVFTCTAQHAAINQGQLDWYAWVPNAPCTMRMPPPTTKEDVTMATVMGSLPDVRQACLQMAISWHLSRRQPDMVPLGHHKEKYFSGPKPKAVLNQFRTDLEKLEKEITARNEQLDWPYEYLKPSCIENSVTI

Structure (SMILES)	Potency	activity change, negative = inhibition
O=C(OCC(=O)N1CCCc2ccccc21)c1cc(S(=O)(=O)N2CCOCC2)ccc1O	inconclusive: 39.8 µM [inhibitor, partial curve, poor fit]	
CNc1sc(C(=O)c2ccccc2F)c(N)c1-c1nc2ccccc2s1	inconclusive: 14.1 µM [inhibitor, partial curve, poor fit]	
N#CCCN(CCC#N)C(=O)Cc1coc(-c2ccccc2)n1	inactive	
CCN(CC(=O)Nc1ccccc1C(F)(F)F)C(=O)CCOc1ccccc1C	inactive	
O=C1NC(=S)NC1=Cc1ccco1	inconclusive: 1 µM [inhibitor, full curve, poor fit]	
O=C(Cn1nc2n(c1=O)CCCCC2)N1CCCc2ccccc21	inconclusive: 7.94 µM [inhibitor, full curve, poor fit]	
COc1ccc(NC(=S)Nc2ccccc2)cc1	inconclusive: 79.4 µM [inhibitor, partial curve, poor fit] and inconclusive: 89.1 µM [inhibitor, partial curve, poor fit]	
COc1ccccc1C(=O)NCc1nnc2c(-c3nc(C(C)C)no3)cccn12	inactive	
O=C(COc1ccc(Cl)cc1)Nc1ccc(N2CCN(C(=O)c3ccco3)CC2)cc1	inactive	
CCc1nnc(NC(=O)Cc2c(C)nc(C)[nH]c2=O)s1	inactive	
O=C(c1cccs1)n1nc(-c2ccccc2)nc1NCc1ccco1	inconclusive: 20 µM [inhibitor, partial curve, poor fit]	
COC(=O)CSc1nc2c(c(-c3cccs3)c1C#N)CCCC2	inconclusive: 28.2 µM [inhibitor, single point]	
Nc1nc(SCC(=O)N2CCCc3ccccc32)n(-c2ccccc2)n1	inconclusive: 100 µM [inhibitor, single point]	
Cc1cccc(NC(=O)Cn2c(N3CCC(C)CC3)nc(C)cc2=O)c1	inactive	
CSc1ccccc1NC(=O)Nc1ccccc1	inconclusive: 44.7 µM [inhibitor, partial curve, poor fit]	
Cc1ccc(-c2nn(-c3ccccc3)cc2CN(Cc2ccccc2)C(=O)c2ccco2)o1	inconclusive: 39.8 µM [inhibitor, partial curve]	
COCCN1Cc2cc3cc(C)ccc3nc2SC1=Nc1cccc(OC)c1	inconclusive: 50.1 µM [inhibitor, partial curve, poor fit]	
COc1cccc(NC(=O)COC(=O)C2CC(=O)N(c3ccc(C)cc3)C2)c1 (configuration not stated)	inconclusive: 50.1 µM [inhibitor, partial curve, poor fit]	
CC(C)C1OC(c2cccc(NC(=O)c3cccs3)c2)OCC1(C)C (configuration not stated)	inconclusive: 89.1 µM [inhibitor, partial curve, poor fit]	
CC1(C)CC(=O)C2=C(C1)NC(=O)C(C#N)C2c1ccccc1 (configuration not stated)	inconclusive: 100 µM [inhibitor, single point]	
COC(=O)[C@]12CCCCC=C1N(Cc1ccc(Cl)cc1Cl)C(=O)[C@H](CC(=O)NCc1cccc(C(F)(F)F)c1)C2	inactive	

Structure (SMILES)	Potency	activity change, negative = inhibition
O=C(O)[C@@H](c1ccccc1)N1Cc2ccccc2C1=O	active: 39.8 µM	
COc1ccc(C2=CC(c3ccc(Cl)cc3)n3nnnc3N2)c(OC)c1 (configuration not stated)	inconclusive: 12.6 µM [inhibitor, partial curve, poor fit]	
c1ccc(Sc2c(-c3ccccc3)cc3ccccn23)cc1	inconclusive: 39.8 µM [inhibitor, partial curve, poor fit]	
COc1cc2oc(=O)cc(-c3cccc(-c4ccc(C(F)(F)F)cc4)c3)c2c(OC)c1OC	inconclusive: 100 µM [inhibitor, single point]	
Cc1cccnc1CNC[C@H]1Cn2cc(-c3ccccc3)nc2CO1	inactive	
C[C@H]1CN=C(Nc2ccccc2)N1CCCC1CCCCC1	inactive	
Cc1cc(C)c(C#N)c(SCC(=O)N(CCC#N)c2ccc3c(c2)OCCO3)n1	inconclusive: 1.41 µM [inhibitor, partial curve, poor fit]	
O=C(CSc1ncc2c(n1)-c1ccccc1N(Cc1ccc(F)cc1)S2(=O)=O)NCCc1ccccc1	inconclusive: 3.98 µM [inhibitor, full curve, poor fit]	
Cn1c(C(=O)Nc2cccc3ncccc23)c(Cl)c2ccccc21	inconclusive: 112 µM [inhibitor, single point]	
CCN1CCN(c2cc(SC(C)C)nc(-c3ccc(OC)cc3)n2)CC1	inconclusive: 35.5 µM [inhibitor, partial curve, poor fit]	
COc1ccc(/C=C/C(=O)NCC(=O)N/N=C(\C)Cc2ccccc2)cc1	inconclusive: 5.01 µM [inhibitor, full curve, poor fit]	
CC1(C(=O)NS(=O)(=O)Cc2ccccc2C(F)(F)F)CCN1C(=O)c1ccccc1 (configuration not stated)	inactive	
Cc1cc(C)c(NC(=O)CCNC(=O)Cc2ccccc2)c(C)c1		inconclusive: -35.2% [inhibitor]
Cc1nc(C(=O)NC2CCOCC2)sc1C1(C)CC(c2ccccc2)=NO1 (configuration not stated)	inconclusive: 0.224 µM [inhibitor, full curve, poor fit]	
O=C1CCc2cc(-c3csc(Nc4ccccc4)n3)ccc2N1	inconclusive: 14.1 µM [inhibitor, full curve, poor fit]	
COc1ccc2nc(C(=O)NC(C3CC3)C3CC3)ccc2c1	inconclusive: 0.794 µM [inhibitor, full curve, poor fit]	
COc1cccc2cc(C(=O)OCC(=O)N3CC(C)OC(C)C3)c(=O)oc12 (configuration not stated)	inactive	
O=C(O)c1ccc(NC2=CC(c3ccccc3)N(c3ccc(C(=O)O)cc3)C2=O)cc1 (configuration not stated)	inconclusive: 100 µM [inhibitor, single point]	
N#Cc1ccc(N2CCN(C(=O)CNC(N)=O)CC2=O)cc1	inactive	
CCc1ccc(OCC(=O)NC(c2ccccc2)c2cccs2)cc1 (configuration not stated)	inconclusive: 50.1 µM [inhibitor, partial curve, poor fit]	
COc1ccc(CCn2c(C)cc(C(=O)COC(=O)c3cnccn3)c2C)cc1	inconclusive: 35.5 µM [inhibitor, single point]	

A section of the results above, as a working copy:
Structure (SMILES)	Potency	activity change, negative = inhibition
Cc1cc(C)c(C#N)c(SCC(=O)N(CCC#N)c2ccc3c(c2)OCCO3)n1	inconclusive: 1.41 µM [inhibitor, partial curve, poor fit]	
O=C(CSc1ncc2c(n1)-c1ccccc1N(Cc1ccc(F)cc1)S2(=O)=O)NCCc1ccccc1	inconclusive: 3.98 µM [inhibitor, full curve, poor fit]	

From PubChem BioAssay AID1671190 (National Center for Advancing Translational Sciences (NCATS), 2021)
